Measured values taken from PubChem BioAssay AID493014 (National Center for Advancing Translational Sciences (NCATS), 2011).
Some of the results follow. Shown are side measurements of this screen, not its main read-out; they come without a call. Compounds called inactive in the main read-out are mostly missing here. The note in brackets gives the kind of curve behind each potency; many fits are weak.

Experiment: qHTS Assay to Find Inhibitors of Chronic Active B-Cell Receptor Signaling
Details: ABC-DLBCL IkBa-CBG/CBR reporter, luminescence ratio (green luciferase fused to IkBa over red control in TMD8 lymphoma cells), 4 h
Method in brief: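 Compounds up to 46 uM were incubated four hours with TMD8 cells whose green CBG68 luciferase is fused to IkappaBalpha; red CBR luminescence normalised the signal, and concentration-effect curves were fitted to fusion, red and ratio data.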

[1] = measured here: CBR red luminescence, cell number
[2] = measured here: IkBa-CBG green luminescence

| Compound | AC50 [1] | AC50 [2] |
| --- | --- | --- |
| Cc1ccc(S(=O)(=O)N2CCCN(S(=O)(=O)C3CCS(=O)(=O)C3)CC2)cc1 (stereo not given) | 29.1 µM [rising, single point] | – |
| CCOC(=O)Cn1c(C)c(Br)c(=O)c2cccc(C)c21 | 35.5 µM [rising, single point] | – |
| Cc1ccccc1NC(=O)/C(C#N)=C/c1ccc[nH]1 | 11.2 µM [falling, partial curve] | – |
| COc1ccc2cc(-c3cccnc3)ncc2c1 | 16.4 µM [falling, single point] | – |
| CCOc1ccc2nc(N(Cc3cccnc3)C(=O)c3cccs3)sc2c1 | 1.12 µM [rising, full curve, poor fit] | – |
| CCC(C)(C)C1CCC(=NNC(=O)c2ccoc2C)CC1 (stereo not given) | 9.2 µM [falling, partial curve] | – |
| CCC1=NN(C(=O)c2ccc(C)cc2)C(O)(c2ccc(Br)cc2)C1 (stereo not given) | 23.1 µM [falling, single point] | – |
| O=C(Nc1ccccc1)NC1CCCc2ccccc21 (stereo not given) | 3.55 µM [falling, partial curve, poor fit] | – |
| Cc1cc(NC(=O)c2ccc3c(c2)OCCO3)no1 | 29.1 µM [falling, single point] | – |
| Cc1ccccc1C(=O)Nc1nnc(CC(=O)N/N=C/c2cn(Cc3ccccc3)c3ccccc23)s1 | 35.5 µM [falling, single point] | – |
| FC(F)(Cl)c1nnc2ccc(Cl)nn12 | 25.1 µM [falling, single point] | 35.5 µM [falling, single point] |
| CC(N=Cc1cccc(O)c1O)c1ccccc1 (stereo not given) | 8.2 µM [rising, partial curve] | – |
| CN(C)C(=O)CSc1cccc2cccnc12 | – | 18.4 µM [falling, single point] |
| CCN1C(=O)CS/C1=N\S(=O)(=O)c1ccccc1 | 0.562 µM [falling, full curve, poor fit] | – |
| Cc1nc(SCC(=O)NNC(=O)c2cccs2)[nH]c(=O)c1C | 11.2 µM [falling, partial curve] | – |
| Cc1ccc(C)c(NC(=O)CSc2nc3nc(-c4cccs4)cc(C(F)(F)F)c3c(=O)[nH]2)c1 | 35.5 µM [falling, single point] | 25.1 µM [rising, partial curve, poor fit] |
| O=C(C[n+]1cc(-c2ccc(F)cc2)n2c1CCC2)c1cccs1 | 1.26 µM [falling, full curve, poor fit] | – |
| Cc1[nH]n(C(N)=S)c(=O)c1N=Nc1cc(C(F)(F)F)ccc1Cl | 31.6 µM [rising, single point] | – |

As a working copy, part of the list above.

| Compound | AC50 [1] | AC50 [2] |
| --- | --- | --- |
| Cc1nc(SCC(=O)NNC(=O)c2cccs2)[nH]c(=O)c1C | 11.2 µM [falling, partial curve] | – |
| Cc1ccc(C)c(NC(=O)CSc2nc3nc(-c4cccs4)cc(C(F)(F)F)c3c(=O)[nH]2)c1 | 35.5 µM [falling, single point] | 25.1 µM [rising, partial curve, poor fit] |
